{"source": "paper PMC9210727", "target": "T1, TIGIT (human (endogenous in CD8+ T cells from PBMCs)) (UniProt Q495A1)", "T1 sequence": "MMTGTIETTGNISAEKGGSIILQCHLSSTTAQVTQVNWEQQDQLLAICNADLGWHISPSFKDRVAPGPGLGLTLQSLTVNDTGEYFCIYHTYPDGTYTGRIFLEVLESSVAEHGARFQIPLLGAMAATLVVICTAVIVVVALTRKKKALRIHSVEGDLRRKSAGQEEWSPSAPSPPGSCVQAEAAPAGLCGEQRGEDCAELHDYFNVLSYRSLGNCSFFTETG", "experiment": "co-IP; lysate of CD8+ T cells cultured with Fc-CD155; antibody incubated with the supernatant at 4 °C overnight, Protein A/G Sepharose beads 6 h, three washes, western blot", "note": "Results are given in words; binding and its absence hold for the method and conditions named. Binding seen in cells or lysates may run through a third protein. Some results given as binding are weak or reduced against the parent protein; the word gives no strength."}
{"binder": "SH2-containing inositol phosphatase 1 (SHIP-1) (enzyme, UniProt Q92835 1-1189) MVPCWNHGNITRSKAEELLSRTGKDGSFLVRASESISRAYALCVLYRNCVYTYRILPNEDDKFTVQASEGVSMRFFTKLDQLIEFYKKENMGLVTHLQYPVPLEEEDTGDDPEEDTVESVVSPPELPPRNIPLTASSCEAKEVPFSNENPRATETSRPSLSETLFQRLQSMDTSGLPEEHLKAIQDYLSTQLAQDSEFVKTGSSSLPHLKKLTTLLCKELYGEVIRTLPSLESLQRLFDQQLSPGLRPRPQVPGEANPINMVSKLSQLTSLLSSIEDKVKALLHEGPESPHRPSLIPPVTFEVKAESLGIPQKMQLKVDVESGKLIIKKSKDGSEDKFYSHKKILQLIKSQKFLNKLVILVETEKEKILRKEYVFADSKKREGFCQLLQQMKNKHSEQPEPDMITIFIGTWNMGNAPPPKKITSWFLSKGQGKTRDDSADYIPHDIYVIGTQEDPLSEKEWLEILKHSLQEITSVTFKTVAIHTLWNIRIVVLAKPEHENRISHICTDNVKTGIANTLGNKGAVGVSFMFNGTSLGFVNSHLTSGSEKKLRRNQNYMNILRFLALGDKKLSPFNITHRFTHLFWFGDLNYRVDLPTWEAETIIQKIKQQQYADLLSHDQLLTERREQKVFLHFEEEEITFAPTYRFERLTRDKYAYTKQKATGMKYNLPSWCDRVLWKSYPLVHVVCQSYGSTSDIMTSDHSPVFATFEAGVTSQFVSKNGPGTVDSQGQIEFLRCYATLKTKSQTKFYLEFHSSCLESFVKSQEGENEEGSEGELVVKFGETLPKLKPIISDPEYLLDQHILISIKSSDSDESYGEGCIALRLEATETQLPIYTPLTHHGELTGHFQGEIKLQTSQGKTREKLYDFVKTERDESSGPKTLKSLTSHDPMKQWEVTSRAPPCSGSSITEIINPNYMGVGPFGPPMPLHVKQTLSPDQQPTAWSYDQPPKDSPLGPCRGESPPTPPGQPPISPKKFLPSTANRGLPPRTQESRPSDLGKNAGDTLPQEDLPLTKPEMFENPLYGSLSSFPKPAPRKDQESPKMPRKEPPPCPEPGILSPSIVLTKAQEADRGEGPGKQVPAPRLRSFTCSSSAEGRAAGGDKSQGKPKTPVSSQAPVPAKRPIKPSRSEINQQTPPTPTPRPPLPVKSPAVLHLQHSKGRDYRDNTELPHHGKHRPEEGPPGPLGRTAMQ", "values": [{"measurement": "binding", "value": "binds"}]}
